Patent US20250172540A1, “Methods And Systems For Quantifying Partitioning Of Agents In Vivo Based On Partitioning Of Agents In Vitro” (Whitehead Institute for Biomedical Research, priority 2022, published 2025)
Entries after “also recorded” stand apart in the source; their conditions may differ. Some compounds share one wording; it may come from a single statement.

Test system: HCT-116 cells
Experiment: Live cell confocal / two-photon imaging of endogenously fluorescent drugs
Assay type: cell-based, Human
Conditions: live HCT-116 cells, 50 μM, 1 hour, confocal or two-photon imaging

Row | Structure (SMILES) | subcellular distribution of the drug's fluorescent signal
1 | Nc1ccc2cc3ccc(N)cc3nc2c1 [proflavine] | concentrated almost exclusively in the nucleus
2 | CC[C@@]1(O)C(=O)OCc2c1cc1n(c2=O)Cc2cc3ccccc3nc2-1 [camptothecin] | concentrated almost exclusively in the nucleus
3 | Cc1ccc(C(=O)Nc2ccc(S(=O)(=O)O)c3cc(S(=O)(=O)O)cc(S(=O)(=O)O)c23)cc1NC(=O)c1cccc(NC(=O)Nc2cccc(C(=O)Nc3cc(C(=O)Nc4ccc(S(=O)(=O)O)c5cc(S(=O)(=O)O)cc(S(=O)(=O)O)c45)ccc3C)c2)c1 [suramin] | concentrated predominantly in the cytoplasm
4 | CC(C)c1ccc2oc3nc(N)c(C(=O)O)cc3c(=O)c2c1 [amlexanox] | concentrated predominantly in the cytoplasm
5 | Nc1nc(N)c2nc(-c3ccccc3)c(N)nc2n1 [triamterene] | concentrated predominantly in the cytoplasm
6 | C[C@]1(O)C[C@@H](c2nc(-c3ccc4ccc(-c5ccccc5)nc4c3)c3c(N)nccn32)C1 [linsitinib] | concentrated predominantly in the cytoplasm
7 | CC[C@@]1(O)C(=O)OCc2c1cc1n(c2=O)Cc2cc3c(CN(C)C)c(O)ccc3nc2-1 [topotecan] | concentrated almost exclusively in the nucleus; also recorded: much of its fluorescent signal occurred in the nucleus
8 | COc1ccc2cc3[n+](cc2c1OC)CCc1cc2c(cc1-3)OCO2 [Berberine] | concentrated predominantly in mitochondria
